Measured values published in PubChem BioAssay AID623998 (Broad Institute, 2012).
The inconclusive results got no clear call from the source; some entries with a clear call stand among them for comparison. Active and inactive are the calls of the source.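 Rule for the calls: active = compound whose fitted half-maximal dose is at most twice its top tested dose in every repeat; inconclusive = mixed calls across repeats, weak flat response, or unreliable curve fit; inactive = all repeats flat, too weak, or wrong direction.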

Protein sequences, listed by entry. Tags and fused reporters are not part of them. Lines headed by an entry give the natural chain unless they say otherwise; changes in a name come on top.
UniProt P49841: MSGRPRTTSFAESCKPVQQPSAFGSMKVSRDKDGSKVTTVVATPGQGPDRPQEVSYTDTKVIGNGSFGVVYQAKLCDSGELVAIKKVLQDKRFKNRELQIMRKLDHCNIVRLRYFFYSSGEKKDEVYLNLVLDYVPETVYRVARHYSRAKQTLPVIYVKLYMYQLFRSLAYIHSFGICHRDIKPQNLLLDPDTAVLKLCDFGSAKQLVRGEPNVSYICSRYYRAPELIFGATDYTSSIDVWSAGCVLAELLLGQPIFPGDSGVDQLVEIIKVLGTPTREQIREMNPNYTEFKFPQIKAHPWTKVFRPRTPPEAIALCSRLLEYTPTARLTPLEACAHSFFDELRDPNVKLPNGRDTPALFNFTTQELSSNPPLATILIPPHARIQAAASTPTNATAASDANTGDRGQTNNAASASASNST

target: Glycogen synthase kinase-3 beta (Homo sapiens) (UniProt P49841); test: GSK3beta kinase inhibitors, SAR follow-up, biochemical, ADP-Glo luminescence, dry powder samples (AID 623998); settings: GSK3beta ADP-Glo luminescence kinase assay, 60 min; at 46 µM (top of the series)

Q: How did the activity, negative = inhibition turn out when `COc1ccccc1C1C2=C(CC(C)(C)CC2=O)Nc2ccccc21` (centres undefined) was run?
A: inactive: -13.5%

Q: With `COc1ccccc1-c1c2c(nc3n[nH]c(C)c13)CCC2=O` as the compound, how does the activity, negative = inhibition read?
A: inconclusive: -48.1%

Q: For `Cc1[nH]nc2nc3c(cc12)C(=O)CC(C)(C)C3`, which activity, negative = inhibition is on record?
A: inconclusive: -44.7%

Q: With `COc1ccc(-c2nn(-c3ccccc3)cc2C(=O)N(C)C)cc1` as the compound, how does the activity, negative = inhibition read?
A: inconclusive: 17.4%

Q: How did the activity, negative = inhibition turn out when `CNC(=O)c1cn(-c2ccccc2)nc1-c1ccc(OC)cc1` was run?
A: inconclusive: -16.4%

Q: With `COc1ccccc1C1C2=C(CC(C)(C)CC2=O)Nc2onc(C)c21` (centres undefined) as the compound, how does the activity, negative = inhibition read?
A: inconclusive: -18%

Q: `CN(C)Cc1cn(-c2ccccc2)nc1-c1ccccc1` was tested. Which activity, negative = inhibition did it give?
A: inactive: 8.23%

Q: Which activity, negative = inhibition does the source give for `COc1ccc(-c2nn(-c3ccccc3)cc2CO)cc1` here?
A: inconclusive: -13.1%

Q: How did the activity, negative = inhibition turn out when `COc1ccc(-c2nn(-c3ccccc3)cc2C(=O)O)cc1` was run?
A: inactive: -1.84%
